From publication PMC8038949, “Structural basis for the DNA-binding activity of human ARID4B Tudor domain”
Where a chain is given by its changes, count along the chain named. A weaker result is weaker than the reference pair of the same experiment. Tags and fusion partners may be left off the protein sequences shown. For some assays here: Construct, isoform or probe ends are uncertain for at least one entry. For some assays here: At least one verdict was read from the data and is not stated in words by the source.

Legend:
[1] = target: T1, ARID4B TD151 G143A (Homo sapiens) (UniProt Q4LE39); experiment: ITC; conditions: Kd ratio AT18/GC18 ~1.1-1.3, Kd only in figure; 50 mM Tris-HCl pH 7.6, 50 mM NaCl (buffer A); ITC 25 C; recombinant protein; residues 1-151
T1 sequence (looked up): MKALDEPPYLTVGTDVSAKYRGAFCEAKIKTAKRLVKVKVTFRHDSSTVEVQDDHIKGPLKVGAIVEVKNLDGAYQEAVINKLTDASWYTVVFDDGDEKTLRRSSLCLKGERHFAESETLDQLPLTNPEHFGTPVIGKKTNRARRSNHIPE

[2] = target: T2, ARID4B TD151 K139A (Homo sapiens) (UniProt Q4LE39); experiment: ITC; conditions: Kd ratio AT18/GC18 ~0.4-0.5, Kd only in figure; 50 mM Tris-HCl pH 7.6, 50 mM NaCl (buffer A); ITC 25 C; recombinant protein; residues 1-151
T2 sequence (looked up): T1 sequence (looked up) with K139A, A143G

[3] = target: T3, ARID4B TD151 R142A (Homo sapiens) (UniProt Q4LE39); experiment: ITC; conditions: Kd ratio AT18/GC18 ~1.1-1.3, Kd only in figure; 50 mM Tris-HCl pH 7.6, 50 mM NaCl (buffer A); ITC 25 C; recombinant protein; residues 1-151
T3 sequence (looked up): T1 sequence (looked up) with R142A, A143G

[4] = target: T4, ARID4B TD151 R144A (Homo sapiens) (UniProt Q4LE39); experiment: ITC; conditions: Kd ratio AT18/GC18 ~1.1-1.3, Kd only in figure; 50 mM Tris-HCl pH 7.6, 50 mM NaCl (buffer A); ITC 25 C; recombinant protein; residues 1-151
T4 sequence (looked up): T1 sequence (looked up) with A143G, R144A

[5] = target: T5, ARID4B TD151 R145A (Homo sapiens) (UniProt Q4LE39); experiment: ITC; conditions: Kd ratio AT18/GC18 ~0.4-0.5, Kd only in figure; 50 mM Tris-HCl pH 7.6, 50 mM NaCl (buffer A); ITC 25 C; recombinant protein; residues 1-151
T5 sequence (looked up): T1 sequence (looked up) with A143G, R145A

[6] = target: T6, ARID4A TD121 L50E (Homo sapiens) (UniProt P29374); experiment: EMSA; conditions: weaker than wild-type ARID4A TD121; 50 mM Tris-HCl pH 7.6, 50 mM NaCl (buffer A); EMSA 4 C, 12 uM DNA, 8% native gel in TBE; recombinant protein; residues …
T6 sequence (looked up): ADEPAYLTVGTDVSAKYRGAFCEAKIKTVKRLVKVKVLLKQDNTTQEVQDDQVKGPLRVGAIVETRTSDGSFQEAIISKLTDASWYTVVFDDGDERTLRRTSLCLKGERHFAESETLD

Measured: binding result

CGCAATTATATATTACGG (double strand) [dsAT18]
binds more weakly: [1] | [2] | [3] | [4] | [5]

CGCACCGATCCGTGACGG (double strand) [dsGC18]
binds more weakly: [1] | [2] | [3] | [4] | [5]

CTCAGGTCAAAGGTCACG / TCGTGACCTTTGACCTGA [dsDNA1]
binds more weakly: [6]
